“And” between values parts separate entries of the source, which are not always exact repeats. Identical values can stand only once.
Assay: Assay C: body weight, left and right ventricle weight, tibia length (myocardial hypertrophy)
Format: in vivo, Male Sprague-Dawley rats
Conditions: for Tibia Length (cm): mean ± SEM after 30 days of treatment, eplerenone dose 100 mg/kg/day
Description: The procedure of Assay B was expanded upon in a further study. […] Myocardial tissue from animals in each treatment group was examined after 7, 14, or 30 days of treatment.
Male Sprague-Dawley rats, weighing 230 to 250 g, (Harlan Sprague-Dawley Industries, Indianapolis, IN) were housed in a room 12-hours light/12-hours dark daily cycle at an ambient temperature of 22±1° C. (n=96). Animals were allowed one week to adjust after arrival and had free access to TEKLAD 22/5 rodent diet (Harlan TEKLAD, Madison, Wis.) and tap water until the initiation of the experiment.
Potassium chloride supplementation was added to the saline solution in order to prevent the potential hypokalemia associated with aldosterone excess.
At the time of the surgery, an Alzet 2002 osmotic minipump (Alza Corp., Palo Alto, Calif.) containing either vehicle (9% ethanol/87% propylene glycol/4% dH2O) or 1.0 mg/mL d-aldosterone (Sigma Chemical, St. Louis, Mo.) was inserted subcutaneously at the nape of the neck. Aldosterone was administered at a dose of 0.75 µg/hour. […] Animals were sacrificed from each group (n=8-13) after 7, 14, or 30 days of treatment.
Animals to be sacrificed after 7 or 14 days of treatment were uninephrectomized and implanted with an Alzet minipump. Animals treated for 30 days were uninephrectomized, fitted for Alzet minipumps, and implanted with radio telemetry units (model #TA11PA-C40, Data Sciences Inc., St. Paul, Minn.) according to the following procedure. Animals were anesthetized with 5% isoflurane (SOLVAY Animal Health Inc., Mendota Heights, Minn.), which was delivered in O2 using a VMS anesthesia instrument (Matrix Medical, Inc., Orchard Park, N.Y.). Anesthesia was maintained with 1-2% isoflurane throughout the surgical procedure. The surgery site was clipped, scrubbed with nolvasan, and sprayed with betadine. A rostral-caudal incision was made through the skin from the base of the rib cage to the pubic region using a #11 scalpel blade. A second incision was made through the muscles of the abdominal wall to expose the peritoneal cavity. The […], renal artery and vein of the left kidney were isolated, tied off with 4-0 silk, and the kidney excised and discarded. Organs were carefully displaced with tissue retractors in order to expose the abdominal aorta. A 1.5 cm segment just rostral to the bifurcation of the abdominal aorta into the iliac arteries was cleared of excessive connective tissue and 4-0 silk was used to make an anchor adjacent to the aorta. A microvascular clip was then placed at both ends of the cleaned region to stop excessive blood flow. Using a bent, 21 gauge needle, the abdominal aorta was penetrated. The cannula of the radio telemetry unit was inserted and stabilized in the aorta using the 4-0 silk anchor. Organs were repositioned and the telemetry unit was placed over the organs. Using a non-interrupted suture pattern with 4-0 silk, the abdominal wall was closed, and the skin was subsequently closed using a 4-0 silk in an interrupted suture pattern. Animals were injected around the sutures with 100 μL of the anesthetic Marcaine HCl (Sanofi Winthrop Pharmaceuticals, New York, N.Y.) and given an injection (i.m.) of the antibiotic Mandol (Eli Lilly & Co., Indianapolis, Ind.). Post-operative care included monitoring the animals on a heating pad during recovery from anesthesia until sternal recumbency was reestablished. Animals were monitored daily for signs of distress and infection at the surgical site. Animals displaying continued discomfort after surgery were treated with 0.1-0.5 mg/kg, s.c. Buphrenorphine (Rickett & Colman Pharmaceuticals, Inc. Richmond, Va.). Animals were then placed on tap water and TEKLAD 22/5 rodent diet (Harlan TEKLAD, Madison, Wis.).

[1] = 14-day protocol, individual rats and group Mean, listed as Aldosterone + salt
[2] = 30-day protocol, individual rats and group Mean, listed as Aldosterone + salt
[3] = individual rats and group mean, 7 days of treatment, aldosterone + salt, eplerenone 100 mg/kg/day
[4] = mean ± SEM after 7 days of treatment, aldosterone + salt, eplerenone 100 mg/kg/day
[5] = mean ± SEM after 14 days of treatment, aldosterone + salt, eplerenone 100 mg/kg/day
[6] = 14-day protocol, individual rats and group Mean, listed as Eplerenone + aldosterone + salt
[7] = 30-day protocol, individual rats and group Mean, listed as Eplerenone + aldosterone + salt

Structure (SMILES)	Final Body Weight [1]	Tibia Length [1]	Final Body Weight [2]	Tibia Length [2]	Tibia Length [3]	Tibia Length [4]	Tibia Length [5]	Tibia Length (cm)	Final Body Weight [6]	Tibia Length [6]	Final Body Weight [7]	Tibia Length [7]
C[C@]12CCC(=O)C=C1CC[C@@H]1[C@@H]2[C@@H](O)C[C@]2(C=O)[C@@H](C(=O)CO)CC[C@@H]12 [Aldosterone]	298 g and 261 g and 307 g (2×) and 242 g and 279 g and 308 g and 290 g and 264 g and 275 g and 193 g and 215 g and 270 g and 235 g	3.8 cm (6×) and 3.9 cm (5×) and 3.80 cm and 3.7 cm and 3.6 cm	289 g (2×) and 219 g and 282 g and 290 g and 267 g and 319 g and 263 g and 234 g and 272 g	4.0 cm (2×) and 3.8 cm (2×) and 3.9 cm (6×)	3.8 cm (5×) and 3.6 cm and 3.9 cm (3×) and 3.7 cm	3.8 ± 0.03 cm	3.8 ± 0.02 cm	3.9 ± 0.02 cm	–	–	–	–
COC(=O)[C@@H]1CC2=CC(=O)CC[C@]2(C)[C@@]23O[C@@H]2C[C@@]2(C)[C@@H](CC[C@@]24CCC(=O)O4)[C@H]13 [Eplerenone]	–	–	–	–	3.9 cm and 3.8 cm (9×) and 3.7 cm	3.8 ± 0.01 cm	3.8 ± 0.02 cm	3.9 ± 0.00 cm	268 g and 267 g and 247 g and 291 g and 264 g and 302 g	3.8 cm (8×) and 3.9 cm (2×) and 3.7 cm (2×)	310 g and 343 g and 334 g and 299 g and 361 g and 351 g and 316 g and 352 g and 317 g and 331 g	3.9 cm (9×) and 4.1 cm and 4.0 cm

— patent publication US6716829B2, “Aldosterone antagonist and cyclooxygenase-2 inhibitor combination therapy to prevent or treat inflammation-related cardiovascular disorders” (Pharmacia Corporation, priority 2000, dated 2004)
